{"source": "paper PMC6459484", "about": "“Synthetic surfactin analogues have improved anti-PEDV properties” (PLoS ONE, 2019)", "tested_on": "PEDV CV777", "assay": "Plaque reduction assay (anti-PEDV activity)", "type": "cell-based, Porcine epidemic diarrhea virus", "conditions": "fold of surfactin's SI", "experimental": "Cercopithecus aethiops kidney epithelial cells (Vero, ATCC, CCL-81) were cultured in high glucose DMEM (Gibco, US), supplemented with 10% fetal bovine serum (FBS, GIBCO), at 37 °C in a 5% CO2 humidified atmosphere. Cells were routinely seeded at a density of 2×10^5 /mL in plastic tissue culture flasks (25 cm^2 flasks, Corning, USA) and passaged every 3–4 days. PEDV CV777 was provided by the Jiangsu Academy of Agricultural Sciences (JAAS).\nVero cells were seeded at 2 × 10^5 cells/well in 24-well tissue culture plates and incubated 18–24 h at 37 °C until approximately 95% confluency was reached. 100 PFU of PEDV mixed with an equal volume of SLP in DMEM or DMEM alone were incubated 10 minutes at 37 °C, then added into the wells of the Vero cells and incubated 30 minutes at 4 °C. […] The data are representative of 3 biological replicates and each plaque assay was performed in triplicate and values are expressed as means ± the standard deviation. Curve fitting and EC50 were calculated with GraphPad Prism 6 using the log[inhibitor] vs. response equation.\nThe SLPs were tested for anti-PEDV activity using a plaque reduction assay. […] The adsorbed virus particles were then counted by plaque forming assays (Fig 2A). […]\nFig 2 Anti-PEDV activities of lipopeptides. […] After washing cells of unadsorbed virus, the remaining infectious particles was detected by plaque assay. […]", "note": "Square brackets hold non-standard residues; d marks the D form. Peptide text beside a SMILES is read from it. * marks the point of attachment. Palmitoyl = CCCCCCCCCCCCCCCC(=O)*"}
{"smiles": "CCCCCCCCCCCCCCCC(=O)N[C@@H](CCC(=O)O)C(=O)N[C@H](C(=O)N[C@H](CC(C)C)C(=O)N[C@@H](CC(=O)O)C(=O)N[C@H](CC(C)C)C(=O)O)C(C)C", "note": "[SLP5] (Palmitoyl-EV[dL]D[dL]-OH)", "values": [{"measurement": "Selectivity index / safe and effective concentration range relative to surfactin", "value": 13, "unit": "times"}]}
{"smiles": "CCCCCCCCCCCCCCCC(=O)N[C@@H](CCC(=O)O)C(=O)N[C@H](C(=O)N[C@H](CC(C)C)C(=O)N[C@H](CC(C)C)C(=O)N[C@@H](CC(=O)O)C(N)=O)C(C)C", "note": "[SLP8] (Palmitoyl-EV[dL][dL]D-NH2)", "values": [{"measurement": "Selectivity index / safe and effective concentration range relative to surfactin", "value": 21, "unit": "times"}]}
